According to paper PMC10789121, “Amine Basicity of Quinoline ATP Synthase Inhibitors Drives Antibacterial Activity against Pseudomonas aeruginosa” (ACS Medicinal Chemistry Letters, 2023):

System: PA electron transport chain
Experiment: Electron transport activity (ACMA fluorescence quenching) in PA 9027 inverted membrane vesicles
Format: biochemical, Pseudomonas aeruginosa
From the text: The assay for PA ATP synthase activity in EC DK8/pASH20 membrane vesicles requires a functional EC ETC, so potent inhibition of the EC ETC by any compound would interfere with the determination of its IC50 for PA ATP synthase. […] Furthermore, potent inhibition of PA ETC could be an alternative mechanism of action for the antibacterial activity of the current series.
Determination of electron transport activity. As previously described,11 inverted membrane vesicles from PA 9027 or E. coli DK8 pASH20 were added to HMK buffer containing 0.3 µg/mL 9-amino-6-chloro-2-methoxyacridine (ACMA) and 0-64 µg/mL test compound in DMSO. After measurement of baseline ACMA fluorescence for 60 s, redox-driven H+ pumping was initiated by addition of NADH to 0.8 mM, and fluorescence quenching was monitored for 120 s before addition of nigericin to 0.5 µg/mL. Relative activity is reported as the minimum fluorescence value normalized to the maximum fluorescence value following addition of nigericin.

Compound | Fold difference = [PA ETC IC50]/[PA ATP synthase IC50]
CN(C)CCCCNCc1cc2ccccc2nc1SCc1ccccc1 [Compound 8] | 26 [26]
CCN1CCC(CCNCc2cc3ccccc3nc2SCc2ccccc2)CC1 [Compound 14] | 26 [26]
c1ccc(CSc2nc3ccccc3cc2CNCCC2CCN(C3CCCC3)CC2)cc1 [Compound 16] | 14 [14]
